According to paper PMC4634852:

Target: Ik2 kinase, FLAG-tagged (Drosophila)
Assay: co-IP; lysates of S2 cells co-transfected with a FLAG-tagged bait (Ik2-FLAG or Ctp-FLAG) and a myc-tagged Spn-F form; anti-FLAG M2 agarose beads on ice; lysis buffer 20 mM Tris pH 7.0, 150 mM NaCl, 2 mM EDTA, 1% TritonX-100, 1 mM DTT; immunoblot

B1: Spindle-F (Spn-F), full-length, myc-tagged (protein, UniProt Q9V9Y9 1-364)
chain: MEASAAKITPMASSMSASGSTNSPSSEKMNYALQVALQTIKERCIQLQRRVASMEEENQQLREASSRSEGAPRANEIGVTGDVLSLKAQVSELQRQKEQLEEHIGMVSNENRRLWSRLSQISKDQQLNALPSSTDSRAQQNQNLVRSKTFTQHSPNPHLRQKMLSDGIKDLSLEEIALDDFGASSEELGYPYNLQKVEETTSEPDANVDAKRCLDGLQELRREAMKQQQELRSVMTLLENRIALKPCPECAQKTIKKPEMADKSLETDDSLTSELKNYESQHNGHNGTPPSQRINIIQEKIKADAADAMEKTCPMCGKQYSSQVSFNAFREHVEMHFIDDALELESENSIERQFEFVSHAVGDF
Which binding does the source give for B1 here?
The binding was “binds”.

B2: Spn-F-8A, phospho-deficient mutant, myc-tagged (protein, UniProt Q9V9Y9 1-364)
chain: B1 chain with S53A, S85A, S172A, S202A, S264A, S270A, S325A, S349A
B2 was tested. Which binding did it give?
Its binding is “binds”.

B3: Spn-F-8D, phospho-mimetic mutant, myc-tagged (protein, UniProt Q9V9Y9 1-364)
chain: B1 chain with S53D, S85D, S172D, S202D, S264D, S270D, S325D, S349D
With B3 as the binder, how does the binding read?
Its binding is “binds”.

Where a chain is given by its changes, count along the chain named. No constants are given. Whether binding was seen depends on the method and setting. Binding seen in cells or lysates may run through a third protein. Binding calls can cover weak binding; strength is not graded here. Sequences can lack the tags named with a protein.
